Some of the results follow. The main result of the screen is listed elsewhere. These columns were measured beside it and carry no call. Compounds called inactive in the main read-out are mostly missing here. Words in brackets tell the shape of the fitted curve; partial curves, single points and poor fits give uncertain potencies.

This test can be described thus: qHTS Assay for Lipid Storage Modulators in Drosophila S3 Cells.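 On cell number change: cells counted by Cell Tracker Red CMTPX staining in the red channel.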 To be noted: BODIPY lipid droplet fluorescence, 18-24 h; for cell number change: measured here: cell count max response, cells fed with added oleic acid. A digest of the protocol:
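Drosophila S3 cells loaded with oleic acid (400 uM, as added) and compounds at several concentrations; lipid droplets imaged by 488-nm laser-scanning cytometry, 500–530 nm intensity and object ratio to cell channel. Percent activity normalized to 20 uM Triacsin C.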
On the technique in general: Quantitative high-throughput screening tests each substance at several concentrations.

Where [1] appears, read: measured here: lipid fluorescence (Fed channel) AC50, cells fed with added oleic acid.
[2] abbreviates: measured here: cell number channel AC50, cells fed with added oleic acid.

`CC1=C(c2ccc(Cl)cc2)[N+](=O)C(C)(C)N1[O-]`: the cell number change was -15.1%. The AC50 (as a rule, the concentration at which the activity in the assay is half-maximal) under setting [1] is 0.00411 µM [falling, full curve, poor fit].

Consider `CC1CCN(C(=O)c2cc(-c3ccccc3O)on2)CC1`, for which the cell number change was -7.41%. The AC50 under setting [1] was 0.00461 µM [falling, full curve, poor fit]. As for `C=CCOc1ccccc1/C=N/n1nnnc1N`, the cell number change is -3.7%. In addition, the AC50 under setting [1] was 29.1 µM [falling, single point]. In the case of `CCN(CC)C(=O)C1CCCN(Cc2sccc2C)C1` (stereo not drawn), the cell number change turned out to be 9.61%. The same measure, in the same setting: to `CCN(CC)S(=O)(=O)c1ccc(C(=O)Nc2cc(C)cc(C)c2)cc1` belongs 0.929%. On to `CCCN(C(=O)CSc1nnc(-c2ccoc2C)n1N)C1CCS(=O)(=O)C1` (stereo not drawn), for which the cell number change is -72.6%. For the same molecule, under setting [2], the AC50 is 4.11 µM [falling, full curve]. Also, the AC50 under setting [1] is 4.11 µM [falling, full curve].

`CCOc1ccc(-c2nc(N)nc(C)c2-c2ccc(OC)c(OC)c2)c(O)c1`: the cell number change worked out at 2.01%. Moreover, under setting [1], the AC50 is 16.4 µM [rising, single point]. On to `Cc1ccc(NC(=O)CCNS(=O)(=O)c2ccc3c(c2)oc(=O)n3C)cc1C`, for which the cell number change came out at 31.6%. Besides, the AC50 under setting [2] is 14.6 µM [rising, single point].

In the case of `COc1ccc(/C=C2\SC(=O)N(CCNC(=O)C3CCN(S(=O)(=O)c4cccs4)CC3)C2=O)cc1`, the cell number change is -5.48%. Under setting [1], the AC50 is 23.1 µM [falling, single point]. For the molecule `Cc1cccc(NC(=S)NCC(C)CSc2ccc(Cl)cc2)c1` (stereo not drawn), the AC50 was 0.103 µM [falling, partial curve, poor fit] under setting [2] and 6.51 µM [falling, partial curve] under setting [1]. Take `Cn1c(=O)c2c(SCC(=O)Nc3cccc(F)c3)nc(-c3ccco3)nc2n(C)c1=O`: the cell number change was -17.6%. In addition, the AC50 under setting [1] is 6.51 µM [falling, full curve, poor fit].

For the molecule `COc1ccc(N2CCN(C(c3cccs3)C(C)NC(=O)C(=O)N3CCCCC3)CC2)cc1` (stereo not drawn), the cell number change turned out to be 4.78%. For the same molecule, under setting [1], the AC50 was 16.4 µM [falling, single point]. `Cc1cccc(NC(=O)CSc2nnc(CNC(=O)c3cccs3)o2)c1C`: the cell number change was -14.9%. Regarding `COc1cc(OC)c(-n2c(C)cc(C=O)c2C)cc1Cl`, the cell number change is -4.42%. Moreover, the AC50 under setting [2] is 0.731 µM [falling, full curve]. Under setting [1], the AC50 is 1.3 µM [falling, partial curve].

Take `O=c1c(Cc2ccc(Cl)cc2Cl)c(O)ccn1CC(F)(F)F`: the cell number change is -52.1%. Also, under setting [2], the AC50 is 18.4 µM [falling, single point]. In addition, the AC50 under setting [1] was 20.6 µM [falling, single point]. Turning to `CC(C)CN(C(=O)CSc1ncnc2ccccc12)C1CCS(=O)(=O)C1` (stereo not drawn), the cell number change was -1.16%. Further, the concentration at half-maximal activity (AC50) under setting [1] is 6.51 µM [rising, single point]. As for `CCC(C(=O)Nc1ccccc1)c1ccccc1` (stereo not drawn), the cell number change is 79.5%. Moreover, the half-maximal activity concentration (AC50) under setting [2] is 23.1 µM [rising, single point]. Also, the half-maximal activity concentration (AC50) under setting [1] was 23.1 µM [rising, partial curve, poor fit]. Take `CN(C)S(=O)(=O)c1ccc(NCC2COc3ccccc3O2)c([N+](=O)[O-])c1` (stereo not drawn): the cell number change is -25.9%. The AC50 under setting [1] was 29.1 µM [falling, single point]. Turning to `O=C(N/N=C/C1CCCCC1)c1ccccn1`, the cell number change is -22.4%. Under setting [1], the concentration at half-maximal activity (AC50) is 6.51 µM [rising, single point]. As for `O=C(Nc1ccn(Cc2ccccc2)n1)c1ccc(F)cc1`, the cell number change was -16.6%. The AC50 under setting [1] is 18.4 µM [falling, single point]. `O=C(NCc1ccncc1)C(=O)NCC(c1ccco1)N1CCN(c2ccc(F)cc2)CC1` (stereo not drawn): the cell number change turned out to be 24%. Under setting [2], the half-maximal activity concentration (AC50) is 1.84 µM [rising, full curve, poor fit]. As to `COc1ccc(CN(C)CC(O)COC(c2ccc(OC)cc2)c2ccc(OC)cc2)cc1` (stereo not drawn), the cell number change is -3.95%. Besides, under setting [1], the AC50 is 0.447 µM [falling, single point]. Regarding `c1ccc2c(-c3nc(C4CCCCC4)no3)cc(-c3ccncc3)nc2c1`, the AC50 under setting [2] was 1.46 µM [rising, partial curve] and the half-maximal activity concentration (AC50) under setting [1] is 1.84 µM [rising, partial curve]. Consider `CN(CC(=O)Nc1cccc(F)c1)CC(=O)Nc1cc(S(=O)(=O)N2CCOCC2)ccc1Cl`, for which the cell number change was -7.98%. In addition, under setting [1], the AC50 was 6.51 µM [falling, single point]. Turning to `O=C(CC(C(=O)O)c1c(F)cccc1Cl)c1ccc(Cl)cc1` (stereo not drawn), the cell number change was determined as 31.5%. In addition, under setting [2], the half-maximal activity concentration (AC50) is 4.11 µM [rising, full curve, poor fit]. As to `COc1ccc(C(C#N)N2CCC(c3ccccc3)=N2)cc1` (stereo not drawn), the cell number change stood at 31.2%. Besides, the AC50 under setting [2] is 5.17 µM [rising, single point].

Take `CCOc1ccccc1/C=N/Nc1nc2ccccc2o1`: the cell number change was -10.3%. Take `COc1ccc(OC)c(NC(=O)Cn2cc(C#N)c3ccccc32)c1`: the cell number change is 0.0661%. Also, the half-maximal activity concentration (AC50) under setting [1] is 6.51 µM [rising, single point]. With `Cc1ccc(S(=O)(=O)Nc2ccccc2C(=O)Nc2nc(-c3ccc(F)cc3)cs2)cc1`, the cell number change is -39.4%. Also, under setting [2], the AC50 was 18.4 µM [falling, single point]. `O=C(O)CCCCCn1c(SCC(=O)Nc2ccc(F)cc2)nc2ccsc2c1=O`: the cell number change came out at 3.19%. Besides, the AC50 under setting [2] was 3.66 µM [falling, single point]. For the molecule `COc1ccc(C(=O)C2CCCN(Cc3ccc4nonc4c3)C2)cc1OC` (stereo not drawn), the cell number change turned out to be 24.2%. In addition, the AC50 under setting [1] is 14.6 µM [rising, partial curve, poor fit]. For the molecule `CC(C)C[C@H](NC(=O)c1[nH]cnc1C(=O)N[C@H](C)c1ccccc1)C(=O)OCc1ccccc1`, the cell number change was -0.742%. In addition, the AC50 under setting [1] is 0.00411 µM [falling, full curve, poor fit]. As to `O=C(Nc1ccc(N2CCN(c3ccccc3)CC2)c(F)c1)C1CC1`, the cell number change was -20.5%. Moreover, the concentration at half-maximal activity (AC50) under setting [2] is 6.51 µM [rising, single point]. The AC50 under setting [1] is 0.82 µM [falling, single point]. For `CCN1C(=O)/C(=C\N2CCN(c3ccc(F)cc3)CC2)SC1=S`, the AC50 is 1.3 µM [rising, partial curve] under setting [2] and 1.16 µM [rising, full curve] under setting [1]. `Cc1ccc(SCC(=O)OCC(=O)N(CC(C)C)c2c(N)n(Cc3ccccc3)c(=O)[nH]c2=O)c(C)c1`: the cell number change was -50.6%. Under setting [2], the AC50 is 29.1 µM [falling, single point]. Also, the AC50 under setting [1] was 18.4 µM [falling, single point]. On to `O=C(COc1ccc(S(=O)(=O)N2CCOCC2)cc1)NCc1ccccc1`, for which the cell number change was -14.4%. As for `Nc1ccccc1SC1CC(=O)N(c2ccc3c(c2)OCCO3)C1=O` (stereo not drawn), the cell number change stood at 15%. Further, under setting [1], the half-maximal activity concentration (AC50) is 6.51 µM [falling, single point].

With `Cc1ccc(C(=O)NCCONC(=O)c2ccc(C)cc2)cc1`, the cell number change is -13.1%. Under setting [1], the AC50 was 5.62 µM [falling, single point].

Turning to `Cn1c(NCc2ccccc2)cc(=O)n(C)c1=O`, the cell number change was found to be 3.06%. Moreover, the AC50 under setting [1] is 0.326 µM [falling, full curve]. `OCCN(Cc1ccccc1)Cc1ccc(F)c(F)c1`: the cell number change was -7.08%. In addition, the AC50 under setting [1] is 1.84 µM [falling, full curve]. Take `CCOC(=O)c1cc(C(=O)NCc2ccc(Cl)cc2Cl)nn1C`: under setting [1], the AC50 is 11.6 µM [rising, partial curve]. Turning to `Cc1nn(-c2ccccc2)c(N)c1N=Nc1cccc(S(=O)(=O)N2CCOCC2)c1`, the cell number change was -29.2%. In addition, the AC50 under setting [1] is 29.1 µM [falling, single point]. As for `CCOc1ccc(NC(=O)c2ccc(NC(=O)COC(=O)Cc3ccc(OC)cc3)cc2)cc1`, the cell number change is 6.37%. Besides, the AC50 under setting [1] is 23.1 µM [rising, single point].

Consider `CS(=O)(=O)c1cccc(C(=O)Nc2cccc(S(=O)(=O)N3CCCC3)c2)c1`, for which the cell number change is 3%. `COc1cc(C(=O)NC(C)c2ccc(-n3ccnc3)cc2)cc(OC)c1C` (stereo not drawn): the cell number change came to 15.1%. Under setting [2], the concentration at half-maximal activity (AC50) was 1.84 µM [rising, partial curve, poor fit]. Also, the AC50 under setting [1] is 23.1 µM [rising, single point]. As to `Cc1coc(NC(=O)CSc2nc(-c3ccncc3)cc(C(F)(F)F)c2C#N)n1`, the half-maximal activity concentration (AC50) runs as follows: under setting [2], 0.82 µM [rising, partial curve]; under setting [1], 0.231 µM [rising, full curve]. As to `CCn1c(-c2cccnc2Cl)nc2cc(Cl)c(Cl)cc21`, the AC50 under setting [1] was 0.366 µM [falling, partial curve, poor fit]. As for `CCOC(=O)N1CCC(N2Cc3cccc(C(=O)Nc4ccc(N(CC)CC)cc4C)c3C2=O)CC1`, the cell number change was -9.79%. Moreover, the AC50 under setting [1] is 1.84 µM [rising, partial curve, poor fit]. As for `O=C(NCCCn1ccnc1)c1ccc(N2CCCCC2)c([N+](=O)[O-])c1`, the cell number change was 110%. In addition, the AC50 under setting [2] was 23.1 µM [rising, single point]. Turning to `CC(C)c1nnc(NC(=O)c2c(O)c3cccc4c3n(c2=O)CCC4)s1`, the cell number change was -7.84%. Besides, the half-maximal activity concentration (AC50) under setting [1] is 0.731 µM [falling, full curve, poor fit]. Take `Cc1csc(SCc2c(C(=O)O)oc3ccccc23)n1`: the cell number change was 5.39%. The same measure, in the same setting: the value for `OCCNCCCCCOc1ccc(F)cc1` was 1.16%. Take `CC(=O)Oc1ccc(C23CC4CC(CC(C4)C2)C3)cc1C(=O)O`: the cell number change was 47.2%. In addition, under setting [2], the AC50 was 29.1 µM [rising, single point]. Also, the AC50 under setting [1] was 29.1 µM [rising, single point]. For the molecule `Cc1cc(=O)oc2cc(NC(=O)c3cccc(S(C)(=O)=O)c3)ccc12`, the cell number change amounted to 2.63%.

With `O=S(=O)(c1ccccc1)[C@@]1(c2ccccc2)C[C@@H]2ON=C(c3cccc(Br)c3)[C@@H]2C1`, the cell number change is -29.9%. The same measure, in the same setting: the value for `Cc1ccc(NC(=O)C(C)N2C(=O)c3ccccc3C2=O)c(C)c1` (stereo not drawn) was -23.6%. For `COc1cccc(CN2CC(C(=O)NCCc3ccc(C)s3)CCC2=O)c1` (stereo not drawn), the cell number change came out at 17%. Further, the AC50 under setting [2] is 2.31 µM [rising, partial curve, poor fit]. On to `Cc1noc(C)c1C(=O)OCC(=O)c1c[nH]c2ccccc12`, for which the cell number change is -2.38%. For the same molecule, under setting [1], the AC50 is 0.58 µM [rising, full curve, poor fit].

In the case of `CCOc1cccc(-c2nnc3sc(COc4ccc(Cl)cc4)nn23)c1`, the cell number change was -4.33%.

As to `COc1ccc(CCNC(=O)CCn2c(=O)oc3ccccc32)cc1OC`, the AC50 under setting [1] is 2.31 µM [falling, partial curve].
